Data as given in PubChem BioAssay AID652243 (Drosophila RNAi Screening Center, 2013).
In all, the deposit lists about 24,000 reagents; below is an unselected part of those with a known target gene and a result. Of all reagents, 246 (1%) were called active. 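Plates not normalised; calls are printed but the firefly/Renilla ratio behind them is not deposited; fold cut for lowering reported inconsistently.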 Raw values are not corrected between plates. Reagent sequences are not shown. The record does not give: the amount of reagent.

Assay: 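Fly genes required for human androgen receptor driven transcription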 (primary screen)
Cells: Drosophila S2R+ cells
Knock-down reagent: long dsRNA against Drosophila genes
Timing: 72 h (48 h, then 24 h hormone)
Conditions: synthetic androgen R1881 at 10 nM for 24 h
Read-out: 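Firefly light from an androgen-responsive reporter and Renilla control light per well, raw and unnormalised, for each of two replicates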
Direction: firefly reporter light: higher = more light from androgen-responsive reporter; Renilla control light: higher = more constitutive control signal (cell number, transfection)
Active means: 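Across duplicate plates, a knock-down whose log firefly/Renilla ratio shifted a set fold down or up from the GFP/LacZ control mean was a hit; the downward cut appears as both 1.5 and 3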
Calls: active = hit: reporter lowered or raised; inactive = no hit

Gene | dsRNA | firefly reporter light, replicate 1 | firefly reporter light, replicate 2 | Renilla control light, replicate 1 | Renilla control light, replicate 2 | Outcome
CG3706 | DRSC18649 | 4.28e5 | 2.78e5 | 6.32e6 | 3.68e6 | inactive
TrpRS-m (Tryptophanyl-tRNA synthetase, mitochondrial) | DRSC10848 | 72537 | 55296 | 4.39e5 | 3.91e5 | inactive
Nckx30C | DRSC02686 | 2.56e5 | 1.96e5 | 1.74e6 | 1.36e6 | inactive
Nckx30C | DRSC02687 | 3.20e5 | 2.17e5 | 2.56e6 | 1.76e6 | inactive
Nckx30C | DRSC02688 | 1.53e5 | 1.20e5 | 1.47e6 | 1.52e6 | inactive
Nckx30C | DRSC02689 | 1.09e5 | 71301 | 1.09e6 | 9.54e5 | inactive
Spf45 | DRSC03826 | 2.17e5 | 2.05e5 | 1.71e6 | 1.51e6 | inactive
prod (proliferation disrupter) | DRSC07667 | 3.89e5 | 3.98e5 | 8.36e5 | 7.98e5 | inactive
prod (proliferation disrupter) | DRSC25498 | 4.60e5 | 4.04e5 | 2.35e5 | 4.44e5 | inactive
Cdk5alpha (Cdk5 activator-like protein) | DRSC03290 | 83981 | 91340 | 7.09e5 | 1.07e6 | inactive
Cdk5alpha (Cdk5 activator-like protein) | DRSC23301 | 5.53e5 | 5.49e5 | 6.49e5 | 5.63e5 | inactive
Cdk5alpha (Cdk5 activator-like protein) | DRSC37041 | – | – | – | – | inactive
Dmtn (Dementin) | DRSC12513 | 18866 | 13320 | 1.09e5 | 1.32e5 | inactive
Dmtn (Dementin) | DRSC28385 | 2.60e5 | 4.87e5 | 8.58e5 | 1.28e6 | inactive
Zip102B (Zinc/iron regulated transporter-related protein 102B) | DRSC17155 | 6.11e5 | 1.07e6 | 1.35e6 | 2.36e6 | inactive
Zip102B (Zinc/iron regulated transporter-related protein 102B) | DRSC26001 | 5.80e5 | 6.11e5 | 1.10e6 | 9.14e5 | inactive
prg (piragua) | DRSC03324 | 1.79e5 | 1.70e5 | 1.95e6 | 1.86e6 | inactive
Gug (Grunge) | DRSC11179 | 2.24e5 | 2.35e5 | 3.05e6 | 2.63e6 | inactive
Prosbeta5R2 (Proteasome beta5 subunit-related 2) | DRSC01617 | 2.55e5 | 2.55e5 | 6.06e5 | 6.42e5 | inactive
Prosbeta5R2 (Proteasome beta5 subunit-related 2) | DRSC29767 | 8.55e5 | 8.67e5 | 1.85e6 | 1.95e6 | inactive
CG15820 | DRSC08480 | 7.75e5 | 7.58e5 | 1.76e6 | 1.26e6 | inactive
CG15820 | DRSC27847 | 1.04e6 | 6.02e5 | 3.47e6 | 1.32e6 | inactive
CG11349 | DRSC08179 | 99260 | 99921 | 1.35e6 | 1.26e6 | inactive
CG11349 | DRSC27563 | 2.54e5 | 3.40e5 | 5.96e5 | 7.32e5 | inactive
